For five molecules, binding results are on record in doi:10.1101/2020.04.16.044081.

By UniProt entry, the sequences of proteins in these tests, tags left out. Residues count along the entry.
UniProt P13473, residues 29-410: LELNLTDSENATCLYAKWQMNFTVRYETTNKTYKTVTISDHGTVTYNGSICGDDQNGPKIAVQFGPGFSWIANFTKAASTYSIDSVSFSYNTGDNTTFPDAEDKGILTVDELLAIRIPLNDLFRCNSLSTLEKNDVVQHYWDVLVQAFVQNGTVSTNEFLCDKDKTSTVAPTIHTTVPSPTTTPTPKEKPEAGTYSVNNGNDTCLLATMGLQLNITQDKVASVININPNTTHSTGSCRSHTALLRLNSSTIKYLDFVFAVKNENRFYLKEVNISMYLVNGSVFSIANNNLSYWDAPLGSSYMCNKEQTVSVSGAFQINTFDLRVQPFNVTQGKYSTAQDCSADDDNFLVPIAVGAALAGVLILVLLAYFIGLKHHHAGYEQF
UniProt P49815: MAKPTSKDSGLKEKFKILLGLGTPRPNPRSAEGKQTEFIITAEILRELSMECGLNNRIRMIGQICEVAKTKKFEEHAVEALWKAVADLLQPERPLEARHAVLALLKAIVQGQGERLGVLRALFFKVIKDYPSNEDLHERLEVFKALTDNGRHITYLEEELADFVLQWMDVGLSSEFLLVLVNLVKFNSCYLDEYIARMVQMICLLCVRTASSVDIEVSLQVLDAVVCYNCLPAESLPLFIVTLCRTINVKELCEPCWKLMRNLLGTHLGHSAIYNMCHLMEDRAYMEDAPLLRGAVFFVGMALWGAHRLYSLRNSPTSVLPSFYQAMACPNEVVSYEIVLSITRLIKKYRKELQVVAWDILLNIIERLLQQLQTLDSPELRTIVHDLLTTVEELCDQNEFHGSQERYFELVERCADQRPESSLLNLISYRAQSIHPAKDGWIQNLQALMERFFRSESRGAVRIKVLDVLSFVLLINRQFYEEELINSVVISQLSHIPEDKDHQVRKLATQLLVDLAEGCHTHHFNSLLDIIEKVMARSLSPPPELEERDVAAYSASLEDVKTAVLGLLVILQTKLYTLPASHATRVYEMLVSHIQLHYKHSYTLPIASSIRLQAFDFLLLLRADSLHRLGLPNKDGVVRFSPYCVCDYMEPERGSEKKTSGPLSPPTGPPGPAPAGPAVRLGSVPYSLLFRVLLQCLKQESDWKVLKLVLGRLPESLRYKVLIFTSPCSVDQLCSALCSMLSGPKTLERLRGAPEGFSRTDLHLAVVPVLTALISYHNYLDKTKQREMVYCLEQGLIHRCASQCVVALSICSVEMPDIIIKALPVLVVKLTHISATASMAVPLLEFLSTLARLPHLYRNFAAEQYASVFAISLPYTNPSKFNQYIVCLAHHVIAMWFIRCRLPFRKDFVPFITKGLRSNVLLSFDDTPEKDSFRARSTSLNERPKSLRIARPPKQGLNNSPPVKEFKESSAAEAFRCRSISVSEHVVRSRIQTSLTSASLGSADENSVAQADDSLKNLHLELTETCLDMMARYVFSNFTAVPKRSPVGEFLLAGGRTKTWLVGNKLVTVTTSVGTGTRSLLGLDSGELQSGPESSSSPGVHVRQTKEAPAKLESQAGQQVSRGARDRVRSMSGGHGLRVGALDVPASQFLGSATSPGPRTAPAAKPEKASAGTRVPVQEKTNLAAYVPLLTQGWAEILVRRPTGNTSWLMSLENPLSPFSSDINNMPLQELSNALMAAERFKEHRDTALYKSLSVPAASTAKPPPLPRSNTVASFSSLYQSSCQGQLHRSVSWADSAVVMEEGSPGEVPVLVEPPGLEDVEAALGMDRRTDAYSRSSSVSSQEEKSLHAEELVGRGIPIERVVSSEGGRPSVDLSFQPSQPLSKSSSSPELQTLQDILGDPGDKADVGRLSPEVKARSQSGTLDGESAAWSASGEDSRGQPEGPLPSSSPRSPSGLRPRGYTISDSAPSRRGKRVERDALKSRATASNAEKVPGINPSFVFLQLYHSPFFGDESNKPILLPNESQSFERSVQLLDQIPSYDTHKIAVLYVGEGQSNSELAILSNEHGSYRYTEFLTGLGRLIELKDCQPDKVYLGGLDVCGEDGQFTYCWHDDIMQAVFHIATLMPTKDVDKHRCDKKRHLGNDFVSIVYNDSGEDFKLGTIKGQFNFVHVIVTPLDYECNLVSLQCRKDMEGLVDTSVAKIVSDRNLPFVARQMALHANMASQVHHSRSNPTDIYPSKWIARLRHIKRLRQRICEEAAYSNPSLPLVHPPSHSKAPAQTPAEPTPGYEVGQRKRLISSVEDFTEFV

Like-named read-outs stand apart in the source and are kept apart here. These are yes or no findings as the source states them, for the method shown. Binding seen in cells or lysates may run through a third protein. Some entries that bind do so weakly or less than the wild type. For some assays here: Where a sequence is shown, tags or fusion partners need not be part of it.

The target in test [1] is T1, N-terminal mLumin fragment fused to LAMP1 (pGW-HA-LN151-LAMP1) (human) (UniProt P11279).
T1 sequence: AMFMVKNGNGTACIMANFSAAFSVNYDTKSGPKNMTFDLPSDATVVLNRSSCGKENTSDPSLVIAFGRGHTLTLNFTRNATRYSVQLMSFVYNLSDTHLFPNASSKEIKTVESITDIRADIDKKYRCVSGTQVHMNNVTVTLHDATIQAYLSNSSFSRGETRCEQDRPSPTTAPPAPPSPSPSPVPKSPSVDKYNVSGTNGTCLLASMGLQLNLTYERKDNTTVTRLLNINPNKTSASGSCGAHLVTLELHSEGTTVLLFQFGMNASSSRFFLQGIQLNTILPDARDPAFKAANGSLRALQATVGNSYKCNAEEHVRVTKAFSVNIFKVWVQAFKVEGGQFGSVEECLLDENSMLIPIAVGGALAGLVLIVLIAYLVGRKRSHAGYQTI
The experiment in a line: split reporter.

Test [2] deals with N-terminal mLumin fragment fused to LAMP2 (pGW-HA-LN151-LAMP2) (human) (UniProt P13473). Briefly: split reporter.
Test [3] concerns the target N-terminal mLumin fragment fused to TSC2 (pGW-HA-LN151-TSC2) (human) (UniProt P49815). Briefly: split reporter.
The target in test [4] is TSC2 (tuberin), endogenous human (human (endogenous in MCF-7, MDA-MB-231, HEK293T)) (UniProt P49815). Briefly: co-IP.
The target of test [5] is TSC2 (tuberin), endogenous human (human (endogenous in MCF-7, MDA-MB-231, HEK293T)), P49815. The experiment in a line: co-IP. The conditions noted are these: remark: other sources report otherwise.
Test [6] deals with T2, TSC1 (hamartin), endogenous human (human (endogenous in MCF-7, MDA-MB-231)) (UniProt Q92574).
T2 sequence: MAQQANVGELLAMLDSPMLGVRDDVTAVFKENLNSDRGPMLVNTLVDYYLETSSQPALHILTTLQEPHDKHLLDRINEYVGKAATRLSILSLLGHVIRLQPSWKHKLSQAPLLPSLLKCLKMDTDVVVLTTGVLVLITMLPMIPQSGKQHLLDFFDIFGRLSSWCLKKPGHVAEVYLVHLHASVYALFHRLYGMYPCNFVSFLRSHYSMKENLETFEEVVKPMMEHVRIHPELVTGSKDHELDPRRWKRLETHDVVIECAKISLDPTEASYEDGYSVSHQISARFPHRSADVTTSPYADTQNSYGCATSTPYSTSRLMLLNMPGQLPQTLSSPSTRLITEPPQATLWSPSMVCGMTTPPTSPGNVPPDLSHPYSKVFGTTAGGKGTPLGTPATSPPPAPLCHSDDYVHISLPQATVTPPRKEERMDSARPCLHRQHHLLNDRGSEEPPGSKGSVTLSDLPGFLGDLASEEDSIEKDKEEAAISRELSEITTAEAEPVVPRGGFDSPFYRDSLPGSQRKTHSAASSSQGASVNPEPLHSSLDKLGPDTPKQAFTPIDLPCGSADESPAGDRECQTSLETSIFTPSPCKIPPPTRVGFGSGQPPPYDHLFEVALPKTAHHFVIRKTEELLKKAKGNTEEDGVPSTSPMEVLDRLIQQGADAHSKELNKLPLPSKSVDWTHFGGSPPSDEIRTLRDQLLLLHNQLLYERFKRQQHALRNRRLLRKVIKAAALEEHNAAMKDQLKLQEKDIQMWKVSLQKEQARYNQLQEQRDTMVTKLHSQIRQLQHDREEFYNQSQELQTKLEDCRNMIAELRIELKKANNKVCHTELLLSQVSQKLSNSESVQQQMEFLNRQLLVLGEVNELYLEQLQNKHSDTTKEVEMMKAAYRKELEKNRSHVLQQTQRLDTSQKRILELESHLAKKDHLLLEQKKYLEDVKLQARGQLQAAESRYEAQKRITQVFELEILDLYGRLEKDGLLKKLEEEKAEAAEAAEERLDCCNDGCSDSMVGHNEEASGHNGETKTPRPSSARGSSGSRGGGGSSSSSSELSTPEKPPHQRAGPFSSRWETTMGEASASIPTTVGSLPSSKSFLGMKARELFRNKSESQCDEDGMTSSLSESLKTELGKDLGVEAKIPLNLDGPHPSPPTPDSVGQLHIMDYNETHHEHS
Briefly: co-IP.

For test [7], the target named is TSC2 (tuberin), endogenous human (human (endogenous in MCF-7, MDA-MB-231, HEK293T)) (UniProt P49815). Briefly: co-IP. This is another data set of the same source.

B1: G3BP2 fused to a C-terminal mLumin fragment (pGW-MYC-LC151-G3BP2) (protein, UniProt Q9UN86 1-482)
chain: MVMEKPSPLLVGREFVRQYYTLLNKAPEYLHRFYGRNSSYVHGGVDASGKPQEAVYGQNDIHHKVLSLNFSECHTKIRHVDAHATLSDGVVVQVMGLLSNSGQPERKFMQTFVLAPEGSVPNKFYVHNDMFRYEDEVFGDSEPELDEESEDEVEEEQEERQPSPEPVQENANSGYYEAHPVTNGIEEPLEESSHEPEPEPESETKTEELKPQVEEKNLEELEEKSTTPPPAEPVSLPQEPPKAFSWASVTSKNLPPSGTVSSSGIPPHVKAPVSQPRVEAKPEVQSQPPRVREQRPRERPGFPPRGPRPGRGDMEQNDSDNRRIIRYPDSHQLFVGNLPHDIDENELKEFFMSFGNVVELRINTKGVGGKLPNFGFVVFDDSEPVQRILIAKPIMFRGEVRLNVEEKKTRAARERETRGGGDDRRDIRRNDRGPGGPRGIVGGGMMRDRDGRGPPPRGGMAQKLGSGRGTGQMEGRFTGQRR
B1: the binding entry in test [1], in test [2] and in test [3] was “binds” each time.

B2: G3BP2, endogenous human (protein, UniProt Q9UN86 1-482)
chain: B1 chain
On to B2, for which the binding entry in test [4] is “binds”.

B3: TBC1D7, endogenous human, Q9P0N9 1-293 (protein)
chain: MTEDSQRNFRSVYYEKVGFRGVEEKKSLEILLKDDRLDTEKLCTFSQRFPLPSMYRALVWKVLLGILPPHHESHAKVMMYRKEQYLDVLHALKVVRFVSDATPQAEVYLRMYQLESGKLPRSPSFPLEPDDEVFLAIAKAMEEMVEDSVDCYWITRRFVNQLNTKYRDSLPQLPKAFEQYLNLEDGRLLTHLRMCSAAPKLPYDLWFKRCFAGCLPESSLQRVWDKVVSGSCKILVFVAVEILLTFKIKVMALNSAEKITKFLENIPQDSSDAIVSKAIDLWHKHCGTPVHSS
As for B3, in test [5], the binding result is reported as “binds”.

B4: TBC1D7, endogenous human (protein, UniProt Q9P0N9 1-293)
chain: B3 chain
For the molecule B4, the binding entry in test [6] was “binds”.

B5: TSC1 (hamartin), endogenous human (protein, UniProt Q92574 1-1164)
chain: T2 sequence
As to B5, the binding result in test [7] and in test [4] was “binds” each time.
